# Primary screen of a compound library

A: 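Whole-cell assay for inhibitors of Mycobacterium tuberculosis growth, labelled Cornell in the record; the read-out is not stated. The concentration is filed as 10 mM, unlikely as a test dose, so the dose is not known. Higher means stronger inhibition (inferred from two other growth screens of the library). About 53,000 compounds were tested under these conditions; 1.7% (about 900) showed 50% or more at least once.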
B: 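Assay on Mycobacterium tuberculosis, filed only as a heat shock assay from Cornell; the read-out is not stated. The concentration is filed as 10 mM, unlikely as a test dose, so the dose is not known. Higher reads as stronger inhibition (inferred: compounds with an IC50 in retests scored well above the rest). Of about 69,000 compounds tested this way, about 930 (1.4%) reached 50% or more in at least one test.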

Values are the deposited “Percent Effect”, in %.
The controls that fix the scale are not given in the record; negative values are as filed.
Compounds were drawn at random from those tested, without regard to their results.
A dash means the value is not listed here; it may have been measured.

structure	A	B
O=C1NCCN1C1CCN(CCc2cccs2)CC1	-	-6.318
Cc1ccc(N(Cc2ccco2)C(=O)CC2=NN(C)C(=O)C2)cc1	-36.12	-5.589
CN1CC(=O)N(c2ccccc2)CC12CCN(C(=O)c1ccnnc1)C2.O=C(O)C(F)(F)F (stereo not given)	-16.25	-30.37
O=C(Nc1ccc(F)cc1)NC1(CCO)CCOCC1	-	-24.02
Cl.c1cnc(N2CCCC(NCc3cccc4c3OCCO4)C2)nc1 (stereo not given)	4.698	-13.56
COCC1COCCC12CCN(Cc1nccs1)CC2.O=C(O)C(F)(F)F (stereo not given)	14.3	8.236
OC(CN1CCCCCCC1)c1ccc(F)cc1 (stereo not given)	-	36.53
O=C(NCC1CCOC1)c1cc(-c2cccc(Cl)c2)[nH]n1 (stereo not given)	14.93	13.32
Cn1ncc(NCc2cccc(COC(C)(C)C)c2)c(Cl)c1=O	-	13.6
CC(=O)N1CCC(c2cccc(-c3cccc(C(=O)O)c3)n2)CC1	-2.475	11.74
CCN(C)S(=O)(=O)NCC1CCN(Cc2ccccc2F)C1 (stereo not given)	-4.645	13.38
COCCN1CCC(CN(CC2CCCO2)C(=O)CCC(F)(F)F)CC1 (stereo not given)	26.41	12.31
CCCN1CCC(Cc2noc(-c3cc4cccnc4nc3C)n2)CC1	22.82	8.725
CC1(C(=O)N2CCN(C3CCCC3)CC2)CNCCO1 (stereo not given)	5.664	4.118
Cc1ncsc1C(=O)OCCN1CCCCCC1=O	8.945	-11.39
Cc1cc(C)c(CNC(=O)NC2CCN(C(=O)C(C)C)CC2)c(C)c1	-	18.33
Cn1ncc(NC(=O)Cn2ccc(-c3cccc(F)c3)n2)n1	-9.639	7.231
C1CCN(c2nc(N3CCOCC3)nc3[nH]nnc23)CC1	17.14	2.48
COc1cccc(CN2CCc3nc4ccsc4c(=O)n3CC2)c1.Cl	-29.63	-5.651
CCc1nnc2n1CC(CNCc1nnc(C(C)(C)C)o1)CC2 (stereo not given)	-	3.929
CC(C)(C)c1nc(CN(Cc2ccccc2F)C2CCCCC2)no1	20.02	-26.89
Cc1noc(CCCNS(=O)(=O)N2CCCC2c2ccco2)n1 (stereo not given)	12.36	13.1
CC(C)c1nc(CN(C)Cc2ccc(O)c(C(=O)O)c2)cs1	21.24	8.489
NC(=O)COc1ccc(CN2CCC3(CC2)[C@H](O)C[C@@H]3O)cc1Cl	-	-11.79
c1cnnc(N2CCCC2CNCc2cc[nH]n2)c1 (stereo not given)	-	-0.2166
[H][C@@]12OCCN(C(=O)CCOc3ccccc3)[C@@]1([H])CC[C@@H]2OC	-3.213	6.548
Cc1cc(C2CCCN2CC(=O)N(CCC#N)c2ccccc2F)on1 (stereo not given)	34.28	14.54
Cc1nc2c(c(NCc3ccccc3)n1)CCN(C(=O)NC(C)C)CC2	-14.22	-9.136
NC(=O)Cn1cc(NC(=O)N2CCN(c3ccccc3)CC2)cn1	-	24.76
O=C(NCc1ccc(Cl)s1)NCc1nnc2n1CCCCC2	-22.15	-3.627
CCc1cc(N2CCN(c3cnccn3)CC2)n2nc(C)c(C)c2n1	-3.717	-8.051
O=C(O)C(F)(F)F.[H][C@@]12CCN(Cc3cnn(C)c3)[C@@]1([H])CCN2C(=O)Cc1cccc(F)c1	-59.66	-4.286
Cc1cccc(NC2CCN(C(=O)Nc3ccncc3)CC2)n1	-35.06	-12.35
Cc1c(C(=O)N(C)c2ccccc2)cccc1N(C)S(C)(=O)=O	-47.51	10.25
Cc1nn(C)c2cnn(CC(=O)NCc3ccc(F)cc3)c12	-	-8.213
Cc1cccc(CN2CCc3[nH]nc(C(=O)N4CCNC(=O)C4)c3C2)n1.O=C(O)C(F)(F)F	17.37	-41.9
CCCS(=O)(=O)NCc1ncc(C)c(OC)c1C	-19.61	51.82
CCn1c(N)nc2cc(C(=O)N3CCN(c4ccncc4)CC3)cnc21	14.12	7.29
CN(CCc1noc(C2CC2)n1)C(=O)CN1C(=O)COc2ccccc21	7.709	9.921
O=C(O)C(F)(F)F.[H][C@@]12CCN(C(=O)c3sccc3C)C[C@]1([H])[C@@H](CN(C)C)OC2	-26.79	-7.56
O=C(O)C(F)(F)F.[H][C@@]12OCCN(CC3CCOCC3)[C@@]1([H])CC[C@H]2OCC(=O)N1CCCC1	22.39	3.62
Cc1cc(C)c2cc(CNCc3ccc(C)o3)c3nn(C)c(=O)n3c2c1	-2.639	-5.996
Cc1nn(Cn2ccc(C(=O)N3CCOCC3)n2)c(C)c1Cl	16.38	22.8
[H][C@]12CC[C@]([H])(CN(S(C)(=O)=O)C1)N(C(=O)CCn1cnc3ccccc31)C2	-22.36	5.841
Cc1cc(CN(CC(N)=O)CC(C)C)no1	-	-165.5
CC(C)c1nccn1C(C)C(=O)NC1CCOCC1 (stereo not given)	24.38	13.72
Cn1cnc2c1C(COCC1CC1)CN(Cc1ccsc1)C2 (stereo not given)	12.24	-3.883
CCCN(C)C(=O)c1cc(Br)cc(S(=O)(=O)N2CCOCC2)c1F	21.15	29.53
O=C(c1ncccc1O)N1CCN(Cc2ccco2)C(CCO)C1 (stereo not given)	23.98	12.57
CN1CCN2CCN(Cc3cc(=O)n4c5c(cccc35)CCC4)CC2C1 (stereo not given)	-	-17.57
Cc1ccc(OCCC(=O)N2CCN(c3cnccn3)CC2)cc1C	39.73	28.84
CC(=O)OC1CN(c2nc3c(Cl)cccc3s2)C1	-10.25	-16.61
CCN(Cc1cnn(CC)c1)C(=O)Cn1c(=O)ccc2ccccc21	-	-43.5
OC1(CN2CCC(Oc3cccnc3)CC2)CNCCOC1 (stereo not given)	13.19	-47.64
CNC(=O)C1CN(C(=O)c2ccncc2)CCN(S(C)(=O)=O)C1 (stereo not given)	-22.89	-24.11
Cc1ccccc1CN1CCC2(CCCN2C(=O)C(C)C)CC1	-39.05	-22.4
Cc1ccc(Sc2ccc(CN3CCC4(CCCNC4=O)C3)o2)cc1 (stereo not given)	19.88	-12.43
COc1ccc(CNc2nc(C3CC3)no2)cc1OC	29	8.76
CN(C)c1cc(CNC(=O)Nc2ccc(S(C)(=O)=O)nc2)ccn1	0.0973	27.76
O=C(O)C(F)(F)F.[H][C@]12CCN(CC(C)C)CC[C@@]1([H])S(=O)(=O)CCN2S(C)(=O)=O	14.59	-8.964
Cc1nonc1CN(C)CC1(O)CCCN(CCC2CCCCC2)C1=O (stereo not given)	30.45	0.1675
CCOc1ccc(CNC(C)c2ccc3[nH]c(=O)[nH]c3c2)cc1 (stereo not given)	6.102	-8.888
Cc1cc(C(=O)NCCC2CN(C)CCO2)c2cccc(C)c2n1 (stereo not given)	-11.09	-2.163
CCc1cnc(N2CCC3(CC(=O)N(Cc4csc(C)n4)C3)C2)nc1.O=C(O)C(F)(F)F (stereo not given)	20.33	1.546
CCn1cc(CN2CCN(Cc3cc(C)cc(C)c3)C(=O)C2)cc1C#N	27.61	-13.54
COc1cnc(CSc2nnc(C)s2)cc1OCC(N)=O	25.39	14.95
COc1ccc(NC(=O)c2ccc(CN3CC[C@H](O)C3)cc2)c(OC)n1	-	-15.29
O=C(NCCc1nccs1)[C@H](c1ccccc1)n1cnnn1	14.9	-3.579
COc1ccc(Nc2nc3c(C)nn(C)c3c(=O)n2C)c(C)c1	-5.736	6.264
Cc1nc2c(c(NC(C)c3nnn[nH]3)n1)Cc1ccccc1OC2 (stereo not given)	-7.596	-22.93
O=C(c1cnccn1)N1CCC(CN2CCOCC2)CC1	-0.6387	16.15
O=C(c1ccncc1)N1CCC(c2nc(O)cc(-c3ccncc3)n2)C1 (stereo not given)	-	6.742
CCC(CO)N(Cc1cccs1)C(=O)CNS(=O)(=O)c1cccs1 (stereo not given)	-26.82	5.394
CCn1cc(CNC(C)c2noc(-c3ccc(Cl)cc3)n2)cn1 (stereo not given)	1.885	-13.43
O=C(O)C(F)(F)F.c1coc(CN2CCc3onc(Cn4cccc4)c3C2)c1	12.03	-15.13
CC(C)c1noc(CCNC(=O)NCC2Cc3ccccc3O2)n1 (stereo not given)	12.81	-0.9345
NC(=O)CSc1nccc(-c2ccc3c(c2)OCO3)n1	-17.91	1.008
O=C1COc2c(cccc2C(=O)N2CCCC2Cn2cccn2)N1 (stereo not given)	32.44	14.44

Once more, the final 8:

structure,A,B
O=C(c1cnccn1)N1CCC(CN2CCOCC2)CC1,-0.6387,16.15
O=C(c1ccncc1)N1CCC(c2nc(O)cc(-c3ccncc3)n2)C1 (stereo not given),-,6.742
CCC(CO)N(Cc1cccs1)C(=O)CNS(=O)(=O)c1cccs1 (stereo not given),-26.82,5.394
CCn1cc(CNC(C)c2noc(-c3ccc(Cl)cc3)n2)cn1 (stereo not given),1.885,-13.43
O=C(O)C(F)(F)F.c1coc(CN2CCc3onc(Cn4cccc4)c3C2)c1,12.03,-15.13
CC(C)c1noc(CCNC(=O)NCC2Cc3ccccc3O2)n1 (stereo not given),12.81,-0.9345
NC(=O)CSc1nccc(-c2ccc3c(c2)OCO3)n1,-17.91,1.008
O=C1COc2c(cccc2C(=O)N2CCCC2Cn2cccn2)N1 (stereo not given),32.44,14.44

Data taken from ChEMBL document CHEMBL3988442, “University of Dundee, Small-Polar-MMV Screening Library” (2021).